Test: Cyclodextrin drug loading monitored by 1H NMR (β-cyclodextrins)
Assay type: binding
Conditions: 400 MHz NMR, water and deuterated water, 25° C.

SMILES	loading and binding of platinum-based drug by β-cyclodextrins (consistent shifts of the cyclodextrin signals in 1H NMR)
O=C1[O][Pt]2([NH][C@@H]3CCCC[C@H]3[NH]2)[O]C1=O [oxaliplatin]	capable of loading and binding
N.N.[Cl][Pt][Cl] [cisplatin]	capable of loading and binding

— patent US11229604B2, “Microspheres containing therapeutic agents and related methods of use” (Biosphere Medical, Inc., priority 2017, dated 2022)
